# Assay results from the supplement of paper PMC11438910.
# This is one part of the list. Only a few entries rise above the background.
# Tests used:
# Assay in all cases: fluorescence intensity of antibody binding to polysaccharide-coupled beads; higher = stronger binding
# [1] = target: pneumococcal polysaccharide Pn28A
# [2] = target: pneumococcal polysaccharide Pn28F
# [3] = target: pneumococcal polysaccharide Pn29
# [4] = target: pneumococcal polysaccharide Pn3
# [5] = target: pneumococcal polysaccharide Pn31
# [6] = target: pneumococcal polysaccharide Pn32A
# [7] = target: pneumococcal polysaccharide Pn32F
# [8] = target: pneumococcal polysaccharide Pn33A
# [9] = target: pneumococcal polysaccharide Pn33B
# [10] = target: pneumococcal polysaccharide Pn33C
# [11] = target: pneumococcal polysaccharide Pn33D
# [12] = target: pneumococcal polysaccharide Pn33F
# [13] = target: pneumococcal polysaccharide Pn34
# [14] = target: pneumococcal polysaccharide Pn35A
# [15] = target: pneumococcal polysaccharide Pn35B
# [16] = target: pneumococcal polysaccharide Pn35C
# [17] = target: pneumococcal polysaccharide Pn35F
# [18] = target: pneumococcal polysaccharide Pn36
# [19] = target: pneumococcal polysaccharide Pn37
# [20] = target: pneumococcal polysaccharide Pn38
# [21] = target: pneumococcal polysaccharide Pn39
# [22] = target: pneumococcal polysaccharide Pn4
# [23] = target: pneumococcal polysaccharide Pn40
# [24] = target: pneumococcal polysaccharide Pn41A
# [25] = antibody concentration 2337.65 ng/mL
# [26] = antibody concentration 12500 ng/mL
# [27] = antibody concentration 0.1 ng/mL
# [28] = antibody concentration 0.534724 ng/mL
# [29] = antibody concentration 2.8593 ng/mL
# [30] = antibody concentration 15.2894 ng/mL
# [31] = antibody concentration 81.7561 ng/mL
# [32] = antibody concentration 437.17 ng/mL
binder,measurement,setting,value
3S41.2 (protein) chain 1: EVQLVESGGGLVQPGGSLRLSCATSGFTFRNYWMYWFRQAPGKGLDWVSSISDSSSNTFYSDSVKGRFTISRDNAKNTLYLQMNSLRAEDTAVYYCARRPIAAATGVYWYFDLWGPGTPITVSS chain 2: QAALTQPPSMSGSPGQSVTISCTGTSSDIGGYNRVSWYQQYPGKAPKLMIYEVSKRPSGVSDRFSGSKSGNTAALTISGLQAADEADYYCSSYAGSYTFVLFGGGTRLTVL,fluorescence intensity,[1]; [25],31.2 MFI
same,fluorescence intensity,[1]; [26],43 MFI
same,fluorescence intensity,[2]; [27],30.2 MFI
same,fluorescence intensity,[2]; [28],30.5 MFI
same,fluorescence intensity,[2]; [29],30 MFI
same,fluorescence intensity,[2]; [30],28.2 MFI
same,fluorescence intensity,[2]; [31],30.5 MFI
same,fluorescence intensity,[2]; [32],31.5 MFI
same,fluorescence intensity,[2]; [25],45.2 MFI
same,fluorescence intensity,[2]; [26],139 MFI
same,fluorescence intensity,[3]; [27],15.5 MFI
same,fluorescence intensity,[3]; [28],15.5 MFI
same,fluorescence intensity,[3]; [29],18.5 MFI
same,fluorescence intensity,[3]; [30],15.5 MFI
same,fluorescence intensity,[3]; [31],17 MFI
same,fluorescence intensity,[3]; [32],19 MFI
same,fluorescence intensity,[3]; [25],41 MFI
same,fluorescence intensity,[3]; [26],222 MFI
same,fluorescence intensity,[4]; [27],14.5 MFI
same,fluorescence intensity,[4]; [28],15.5 MFI
same,fluorescence intensity,[4]; [29],28.5 MFI
same,fluorescence intensity,[4]; [30],84 MFI
same,fluorescence intensity,[4]; [31],462 MFI
same,fluorescence intensity,[4]; [32],1600 MFI
same,fluorescence intensity,[4]; [25],5400 MFI
same,fluorescence intensity,[4]; [26],9630 MFI
same,fluorescence intensity,[5]; [27],14.5 MFI
same,fluorescence intensity,[5]; [28],14 MFI
same,fluorescence intensity,[5]; [29],14 MFI
same,fluorescence intensity,[5]; [30],15 MFI
same,fluorescence intensity,[5]; [31],15 MFI
same,fluorescence intensity,[5]; [32],16.5 MFI
same,fluorescence intensity,[5]; [25],42.5 MFI
same,fluorescence intensity,[5]; [26],253 MFI
same,fluorescence intensity,[6]; [27],17.8 MFI
same,fluorescence intensity,[6]; [28],17.5 MFI
same,fluorescence intensity,[6]; [29],18 MFI
same,fluorescence intensity,[6]; [30],18 MFI
same,fluorescence intensity,[6]; [31],18.2 MFI
same,fluorescence intensity,[6]; [32],19 MFI
same,fluorescence intensity,[6]; [25],29.5 MFI
same,fluorescence intensity,[6]; [26],66 MFI
same,fluorescence intensity,[7]; [27],27.5 MFI
same,fluorescence intensity,[7]; [28],28.5 MFI
same,fluorescence intensity,[7]; [29],28.2 MFI
same,fluorescence intensity,[7]; [30],29.2 MFI
same,fluorescence intensity,[7]; [31],28 MFI
same,fluorescence intensity,[7]; [32],32 MFI
same,fluorescence intensity,[7]; [25],46 MFI
same,fluorescence intensity,[7]; [26],83.8 MFI
same,fluorescence intensity,[8]; [27],18 MFI
same,fluorescence intensity,[8]; [28],17 MFI
same,fluorescence intensity,[8]; [29],17.8 MFI
same,fluorescence intensity,[8]; [30],19 MFI
same,fluorescence intensity,[8]; [31],19 MFI
same,fluorescence intensity,[8]; [32],26 MFI
same,fluorescence intensity,[8]; [25],134 MFI
same,fluorescence intensity,[8]; [26],954 MFI
same,fluorescence intensity,[9]; [27],18.5 MFI
same,fluorescence intensity,[9]; [28],17.5 MFI
same,fluorescence intensity,[9]; [29],18.5 MFI
same,fluorescence intensity,[9]; [30],17.5 MFI
same,fluorescence intensity,[9]; [31],18.5 MFI
same,fluorescence intensity,[9]; [32],18.5 MFI
same,fluorescence intensity,[9]; [25],19 MFI
same,fluorescence intensity,[9]; [26],29.5 MFI
same,fluorescence intensity,[10]; [27],20 MFI
same,fluorescence intensity,[10]; [28],19 MFI
same,fluorescence intensity,[10]; [29],19.8 MFI
same,fluorescence intensity,[10]; [30],18 MFI
same,fluorescence intensity,[10]; [31],20.5 MFI
same,fluorescence intensity,[10]; [32],19.5 MFI
same,fluorescence intensity,[10]; [25],30.5 MFI
same,fluorescence intensity,[10]; [26],96.5 MFI
same,fluorescence intensity,[11]; [27],16 MFI
same,fluorescence intensity,[11]; [28],16 MFI
same,fluorescence intensity,[11]; [29],17 MFI
same,fluorescence intensity,[11]; [30],15 MFI
same,fluorescence intensity,[11]; [31],16 MFI
same,fluorescence intensity,[11]; [32],18 MFI
same,fluorescence intensity,[11]; [25],19.8 MFI
same,fluorescence intensity,[11]; [26],38.2 MFI
same,fluorescence intensity,[12]; [27],13 MFI
same,fluorescence intensity,[12]; [28],14 MFI
same,fluorescence intensity,[12]; [29],14.5 MFI
same,fluorescence intensity,[12]; [30],13.5 MFI
same,fluorescence intensity,[12]; [31],14 MFI
same,fluorescence intensity,[12]; [32],16.8 MFI
same,fluorescence intensity,[12]; [25],66.5 MFI
same,fluorescence intensity,[12]; [26],540 MFI
same,fluorescence intensity,[13]; [27],14 MFI
same,fluorescence intensity,[13]; [28],13.2 MFI
same,fluorescence intensity,[13]; [29],14 MFI
same,fluorescence intensity,[13]; [30],15 MFI
same,fluorescence intensity,[13]; [31],13.8 MFI
same,fluorescence intensity,[13]; [32],15 MFI
same,fluorescence intensity,[13]; [25],19 MFI
same,fluorescence intensity,[13]; [26],24.5 MFI
same,fluorescence intensity,[14]; [27],16.5 MFI
same,fluorescence intensity,[14]; [28],16.5 MFI
same,fluorescence intensity,[14]; [29],16.5 MFI
same,fluorescence intensity,[14]; [30],17 MFI
same,fluorescence intensity,[14]; [31],17.5 MFI
same,fluorescence intensity,[14]; [32],18 MFI
same,fluorescence intensity,[14]; [25],36.5 MFI
same,fluorescence intensity,[14]; [26],198 MFI
same,fluorescence intensity,[15]; [27],18 MFI
same,fluorescence intensity,[15]; [28],18 MFI
same,fluorescence intensity,[15]; [29],18.8 MFI
same,fluorescence intensity,[15]; [30],18 MFI
same,fluorescence intensity,[15]; [31],18 MFI
same,fluorescence intensity,[15]; [32],19 MFI
same,fluorescence intensity,[15]; [25],31.2 MFI
same,fluorescence intensity,[15]; [26],124 MFI
same,fluorescence intensity,[16]; [27],20 MFI
same,fluorescence intensity,[16]; [28],19.5 MFI
same,fluorescence intensity,[16]; [29],20 MFI
same,fluorescence intensity,[16]; [30],20.5 MFI
same,fluorescence intensity,[16]; [31],19.5 MFI
same,fluorescence intensity,[16]; [32],20.2 MFI
same,fluorescence intensity,[16]; [25],21.5 MFI
same,fluorescence intensity,[16]; [26],30.5 MFI
same,fluorescence intensity,[17]; [27],21 MFI
same,fluorescence intensity,[17]; [28],20 MFI
same,fluorescence intensity,[17]; [29],19.5 MFI
same,fluorescence intensity,[17]; [30],20.5 MFI
same,fluorescence intensity,[17]; [31],21 MFI
same,fluorescence intensity,[17]; [32],22 MFI
same,fluorescence intensity,[17]; [25],24 MFI
same,fluorescence intensity,[17]; [26],28.5 MFI
same,fluorescence intensity,[18]; [27],15 MFI
same,fluorescence intensity,[18]; [28],15.5 MFI
same,fluorescence intensity,[18]; [29],17 MFI
same,fluorescence intensity,[18]; [30],16.5 MFI
same,fluorescence intensity,[18]; [31],16 MFI
same,fluorescence intensity,[18]; [32],18 MFI
same,fluorescence intensity,[18]; [25],37 MFI
same,fluorescence intensity,[18]; [26],168 MFI
same,fluorescence intensity,[19]; [27],25.5 MFI
same,fluorescence intensity,[19]; [28],25 MFI
same,fluorescence intensity,[19]; [29],28 MFI
same,fluorescence intensity,[19]; [30],25.5 MFI
same,fluorescence intensity,[19]; [31],26.5 MFI
same,fluorescence intensity,[19]; [32],33.5 MFI
same,fluorescence intensity,[19]; [25],143 MFI
same,fluorescence intensity,[19]; [26],960 MFI
same,fluorescence intensity,[20]; [27],24.5 MFI
same,fluorescence intensity,[20]; [28],25.5 MFI
same,fluorescence intensity,[20]; [29],24.8 MFI
same,fluorescence intensity,[20]; [30],27 MFI
same,fluorescence intensity,[20]; [31],26.8 MFI
same,fluorescence intensity,[20]; [32],26.5 MFI
same,fluorescence intensity,[20]; [25],30.5 MFI
same,fluorescence intensity,[20]; [26],57 MFI
same,fluorescence intensity,[21]; [27],17.5 MFI
same,fluorescence intensity,[21]; [28],18.8 MFI
same,fluorescence intensity,[21]; [29],18.8 MFI
same,fluorescence intensity,[21]; [30],17.5 MFI
same,fluorescence intensity,[21]; [31],18.5 MFI
same,fluorescence intensity,[21]; [32],19.5 MFI
same,fluorescence intensity,[21]; [25],33.8 MFI
same,fluorescence intensity,[21]; [26],118 MFI
same,fluorescence intensity,[22]; [27],18 MFI
same,fluorescence intensity,[22]; [28],19 MFI
same,fluorescence intensity,[22]; [29],18 MFI
same,fluorescence intensity,[22]; [30],18.5 MFI
same,fluorescence intensity,[22]; [31],18.2 MFI
same,fluorescence intensity,[22]; [32],20 MFI
same,fluorescence intensity,[22]; [25],30.8 MFI
same,fluorescence intensity,[22]; [26],52.5 MFI
same,fluorescence intensity,[23]; [27],16.8 MFI
same,fluorescence intensity,[23]; [28],15.5 MFI
same,fluorescence intensity,[23]; [29],17 MFI
same,fluorescence intensity,[23]; [30],16.8 MFI
same,fluorescence intensity,[23]; [31],17.5 MFI
same,fluorescence intensity,[23]; [32],19 MFI
same,fluorescence intensity,[23]; [25],47.5 MFI
same,fluorescence intensity,[23]; [26],250 MFI
same,fluorescence intensity,[24]; [27],25 MFI
same,fluorescence intensity,[24]; [28],22.5 MFI

# Some of the entries so far, with bars between the fields.
binder | measurement | setting | value
3S41.2 (protein) chain 1: EVQLVESGGGLVQPGGSLRLSCATSGFTFRNYWMYWFRQAPGKGLDWVSSISDSSSNTFYSDSVKGRFTISRDNAKNTLYLQMNSLRAEDTAVYYCARRPIAAATGVYWYFDLWGPGTPITVSS chain 2: QAALTQPPSMSGSPGQSVTISCTGTSSDIGGYNRVSWYQQYPGKAPKLMIYEVSKRPSGVSDRFSGSKSGNTAALTISGLQAADEADYYCSSYAGSYTFVLFGGGTRLTVL | fluorescence intensity | [11]; [25] | 19.8 MFI
same | fluorescence intensity | [15]; [28] | 18 MFI
same | fluorescence intensity | [15]; [26] | 124 MFI
